Changes are numbered by the printed parent chain. These are yes or no findings as the source states them, for the method shown. Some entries that bind do so weakly or less than the wild type.
B1: antibody 16 (antibody, V domains shown)
VH: QVTLKESGPGILQPSQTLSLTCSFSGFSLSTFALGVGWIRQPSGRGLEWLAHIWWDDDKYYNPALKSRLTISKDTSKNHVFLKIANVDTADTATYYCARITTYYYGMDYWGQGTSVTVSS
VL: DIVLSQSPATLSVTPGDSVSLFCRASQSIGNHLHWYQQESHASPRLLIKYASQSISGIPSRFSGSGSGTDFTLSINSVETEDFGMYFCQQSYNWPLTFGAGTKLELK
B2: chimeric antibody 16 (antibody, V domains shown)
VH: B1 VH
VL: B1 VL
B3: antibody 22 (antibody, V domains shown)
VH: QVTLKESGPGILQPSQTLSLTCSFSGFSLSTFGMGVGWIRQPSGKGLEWLAHIWWDDEKYYNSALKSRLTISKATSKNQVFLKIANVDTADTATYYCARISNYGSNYWYFNVWGTGTTVTVSS
VL: QVVLTQSPALMSASPGEKVTMTCSAGSSVSYMYWYQQKPGSSPRVLIYDTSNLASGVPARFTGSGSGTSYSLTISRMEAEDAATYYCQQWNSYPLTFGAGTKLELK
B4: antibody 34 (antibody, V domains shown)
VH: QVTLKESGPGILQPSQTLSLTCSFSGFSLSTFSLGVGWIRQSSGKGLEWLAHIWWDDEKYYNPALKSRLTISKDTSKNQVFLKIANVDAADTATYYCARAYYSKSYYALDYWGQGTSVTVSS
VL: DIQMTQSPSSLSASLGERVSLTCRASQEISGYLSWLQQKPDGTIKRLIYAASTLDSGVPKRFSGSRSGSDYSLAISSLESEDFADYYCLQYANFPFTFGSGTKLEIK
B5: antibody 42 (antibody, V domains shown)
VH: B3 VH with F24L, M34R, S63P, A74D, K83R, S101Q, N111D
VL: LIVLTQSPAIMSASPGEKVTMTCGATSRISYMFWYQQKPGSSPRVLIYDTSNLASGVPVRFSGSGSGTSYSLTISRVEAEDVATYYCQQWNSYPLTFGAGTKLELK
B6: antibody 43 (antibody, V domains shown)
VH: B3 VH with T3A, P42S, H52N, E58D, S63P, A74D, T75A, V80A, S101G, N111D
VL: B5 VL with L1Q, K18R, G24S, T26N, F33Y, V45L, V77M, V82A, Y86N, N91S
B7: antibody 44 (antibody, V domains shown)
VH: B3 VH with G44E, E58D, S63P, A74D, V80I, A85T, D91E, A98S, S101G, N111D
VL: B3 VL with V2I, L10V, S24T, G26S, S30Y, K38T, V45L, A59V, T62S, S92T
B8: antibody 48 (antibody, V domains shown)
VH: QVQLQQSGTELVRPGTSVKVSCKASGYAFTNYLIEWVKQRPGQGLEWIGVINPGSGFTKYNEKFKGKATLTADKSSSTVYMHLSSLTSEDSAVYFCARGLYRAMDYWGQGTSVTVSS
VL: DIQMTQSPASQSASLGESVTITCLASQTIATWLAWYQQKPGKSPQLLIYGATTLADGVPSRFSGGGSGTKFSFKISSLQAEDFVSYYCQQLYSTPYTFGGGTKLEIK
B9: antibody 50 (antibody, V domains shown)
VH: B8 VH with T9A, T16A, T30S, V79A, H82Q
VL: B8 VL with A30G, G50A, T52A, T53S, S85N, L91I
B10: antibody 3 (antibody, V domains shown)
VH: QVTLKESGPGILQPSQTLSLTCSFSGFSLTTFAMGIGWVRQPSGKGLEWLAHIWWDGEKYNNPVLKSRLTISKDTSKNQVFLRIANVDTPDTATYYCARISSIYYIIDNWGQGTSVTVSS
VL: B1 VL with S5T, D17H, F22S, G30S, H32N, Q38K, E39K, A42E, A51V
B11: antibody 5 (antibody, V domains shown)
VH: B3 VH with V80A
VL: B3 VL with Y31C, T84S

Assays:
[1] = target: T1, human iRhom2, endogenously expressed (human) (UniProt Q6PJF5); assay: FACS on RPMI-8226 and THP-1 cells (iRhom2-positive), 3 µg/ml
T1 sequence: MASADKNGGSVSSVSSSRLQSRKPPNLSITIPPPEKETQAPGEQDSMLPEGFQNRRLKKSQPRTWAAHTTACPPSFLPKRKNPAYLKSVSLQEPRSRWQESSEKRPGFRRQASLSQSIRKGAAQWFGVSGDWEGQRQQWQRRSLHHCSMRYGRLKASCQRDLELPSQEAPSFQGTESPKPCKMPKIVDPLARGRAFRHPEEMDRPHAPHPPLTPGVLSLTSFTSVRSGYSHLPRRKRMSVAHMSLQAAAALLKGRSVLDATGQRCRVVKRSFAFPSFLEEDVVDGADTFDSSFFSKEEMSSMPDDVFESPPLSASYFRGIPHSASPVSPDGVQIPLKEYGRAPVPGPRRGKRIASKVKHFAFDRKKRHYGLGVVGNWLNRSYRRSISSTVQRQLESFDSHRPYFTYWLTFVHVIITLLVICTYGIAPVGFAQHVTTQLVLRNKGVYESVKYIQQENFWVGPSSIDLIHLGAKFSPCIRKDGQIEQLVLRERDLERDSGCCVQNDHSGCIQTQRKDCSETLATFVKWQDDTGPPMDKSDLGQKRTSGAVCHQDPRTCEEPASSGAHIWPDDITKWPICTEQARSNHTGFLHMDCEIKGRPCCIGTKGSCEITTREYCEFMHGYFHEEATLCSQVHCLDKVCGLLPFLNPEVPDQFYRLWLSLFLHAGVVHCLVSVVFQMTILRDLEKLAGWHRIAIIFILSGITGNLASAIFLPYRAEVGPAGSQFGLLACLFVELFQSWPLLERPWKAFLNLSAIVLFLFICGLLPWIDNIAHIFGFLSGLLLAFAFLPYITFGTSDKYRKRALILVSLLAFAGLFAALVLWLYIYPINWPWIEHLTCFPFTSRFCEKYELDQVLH

[2] = target: T1, human iRhom2, endogenously expressed (human); assay: FACS, RPMI-8226 and THP-1 cells, 3 µg/ml
[3] = target: T1, human iRhom2, endogenously expressed (human); assay: FACS, RPMI-8226 and THP-1 cells, 3 µg/ml, murine version
[4] = target: T1, human iRhom2, endogenously expressed (human); assay: indirect FACS scatchard on THP-1 cells; KD only in FIG. 6
[5] = target: T1, human iRhom2, endogenously expressed (human); assay: FACS scatchard on THP-1 cells
[6] = target: T1, human iRhom2, endogenously expressed (human); assay: FACS, RPMI-8226 and THP-1 cells; via representative antibody 16

Binder | binding [1] | binding [2] | binding [3] | binding [4] | binding [5] | binding [6]
B1 | binds | binds | binds | binds | binds | 
B2 | binds | binds |  |  |  | 
B3 |  |  |  | binds | binds | binds
B4 |  |  |  | binds | binds | 
B5 |  |  |  | binds | binds | binds
B6 |  |  |  | binds | binds | 
B7 |  |  |  | binds | binds | 
B8 |  |  |  | binds | binds | 
B9 |  |  |  | binds | binds | 
B10 |  |  |  | binds | binds | 
B11 |  |  |  | binds | binds | 

From US20240287172A1, “PROTEIN BINDERS TO IRHOM2 EPITOPES” (SCIRHOM GMBH, priority 2019, published 2024)
